In this experiment the target is T1, GFP-Aub (Aubergine) (Drosophila) (UniProt O76922).
T1 sequence: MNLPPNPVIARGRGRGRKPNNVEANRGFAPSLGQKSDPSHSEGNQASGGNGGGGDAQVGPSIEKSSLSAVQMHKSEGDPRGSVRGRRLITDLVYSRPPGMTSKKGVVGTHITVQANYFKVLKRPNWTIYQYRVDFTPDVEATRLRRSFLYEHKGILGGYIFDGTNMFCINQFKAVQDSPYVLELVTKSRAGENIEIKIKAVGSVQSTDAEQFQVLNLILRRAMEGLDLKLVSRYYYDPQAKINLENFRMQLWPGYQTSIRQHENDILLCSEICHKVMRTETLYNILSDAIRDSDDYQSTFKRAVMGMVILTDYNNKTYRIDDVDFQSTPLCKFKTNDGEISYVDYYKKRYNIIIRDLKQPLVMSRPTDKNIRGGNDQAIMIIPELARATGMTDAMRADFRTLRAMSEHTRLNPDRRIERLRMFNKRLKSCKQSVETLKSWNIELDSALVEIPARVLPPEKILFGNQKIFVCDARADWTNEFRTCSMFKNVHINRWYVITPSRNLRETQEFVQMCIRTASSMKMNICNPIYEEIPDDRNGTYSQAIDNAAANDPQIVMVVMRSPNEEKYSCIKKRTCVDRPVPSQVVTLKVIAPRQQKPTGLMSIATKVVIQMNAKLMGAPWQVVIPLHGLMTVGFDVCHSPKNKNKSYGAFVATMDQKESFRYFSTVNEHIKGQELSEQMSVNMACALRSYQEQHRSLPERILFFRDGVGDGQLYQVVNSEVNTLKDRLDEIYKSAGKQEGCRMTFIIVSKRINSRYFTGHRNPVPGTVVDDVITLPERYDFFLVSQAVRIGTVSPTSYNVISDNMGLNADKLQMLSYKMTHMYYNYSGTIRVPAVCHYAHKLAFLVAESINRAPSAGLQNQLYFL
The experiment in a line: co-IP.

Chains of the proteins cited; added tags and fusions are not shown.
UniProt A8DY81: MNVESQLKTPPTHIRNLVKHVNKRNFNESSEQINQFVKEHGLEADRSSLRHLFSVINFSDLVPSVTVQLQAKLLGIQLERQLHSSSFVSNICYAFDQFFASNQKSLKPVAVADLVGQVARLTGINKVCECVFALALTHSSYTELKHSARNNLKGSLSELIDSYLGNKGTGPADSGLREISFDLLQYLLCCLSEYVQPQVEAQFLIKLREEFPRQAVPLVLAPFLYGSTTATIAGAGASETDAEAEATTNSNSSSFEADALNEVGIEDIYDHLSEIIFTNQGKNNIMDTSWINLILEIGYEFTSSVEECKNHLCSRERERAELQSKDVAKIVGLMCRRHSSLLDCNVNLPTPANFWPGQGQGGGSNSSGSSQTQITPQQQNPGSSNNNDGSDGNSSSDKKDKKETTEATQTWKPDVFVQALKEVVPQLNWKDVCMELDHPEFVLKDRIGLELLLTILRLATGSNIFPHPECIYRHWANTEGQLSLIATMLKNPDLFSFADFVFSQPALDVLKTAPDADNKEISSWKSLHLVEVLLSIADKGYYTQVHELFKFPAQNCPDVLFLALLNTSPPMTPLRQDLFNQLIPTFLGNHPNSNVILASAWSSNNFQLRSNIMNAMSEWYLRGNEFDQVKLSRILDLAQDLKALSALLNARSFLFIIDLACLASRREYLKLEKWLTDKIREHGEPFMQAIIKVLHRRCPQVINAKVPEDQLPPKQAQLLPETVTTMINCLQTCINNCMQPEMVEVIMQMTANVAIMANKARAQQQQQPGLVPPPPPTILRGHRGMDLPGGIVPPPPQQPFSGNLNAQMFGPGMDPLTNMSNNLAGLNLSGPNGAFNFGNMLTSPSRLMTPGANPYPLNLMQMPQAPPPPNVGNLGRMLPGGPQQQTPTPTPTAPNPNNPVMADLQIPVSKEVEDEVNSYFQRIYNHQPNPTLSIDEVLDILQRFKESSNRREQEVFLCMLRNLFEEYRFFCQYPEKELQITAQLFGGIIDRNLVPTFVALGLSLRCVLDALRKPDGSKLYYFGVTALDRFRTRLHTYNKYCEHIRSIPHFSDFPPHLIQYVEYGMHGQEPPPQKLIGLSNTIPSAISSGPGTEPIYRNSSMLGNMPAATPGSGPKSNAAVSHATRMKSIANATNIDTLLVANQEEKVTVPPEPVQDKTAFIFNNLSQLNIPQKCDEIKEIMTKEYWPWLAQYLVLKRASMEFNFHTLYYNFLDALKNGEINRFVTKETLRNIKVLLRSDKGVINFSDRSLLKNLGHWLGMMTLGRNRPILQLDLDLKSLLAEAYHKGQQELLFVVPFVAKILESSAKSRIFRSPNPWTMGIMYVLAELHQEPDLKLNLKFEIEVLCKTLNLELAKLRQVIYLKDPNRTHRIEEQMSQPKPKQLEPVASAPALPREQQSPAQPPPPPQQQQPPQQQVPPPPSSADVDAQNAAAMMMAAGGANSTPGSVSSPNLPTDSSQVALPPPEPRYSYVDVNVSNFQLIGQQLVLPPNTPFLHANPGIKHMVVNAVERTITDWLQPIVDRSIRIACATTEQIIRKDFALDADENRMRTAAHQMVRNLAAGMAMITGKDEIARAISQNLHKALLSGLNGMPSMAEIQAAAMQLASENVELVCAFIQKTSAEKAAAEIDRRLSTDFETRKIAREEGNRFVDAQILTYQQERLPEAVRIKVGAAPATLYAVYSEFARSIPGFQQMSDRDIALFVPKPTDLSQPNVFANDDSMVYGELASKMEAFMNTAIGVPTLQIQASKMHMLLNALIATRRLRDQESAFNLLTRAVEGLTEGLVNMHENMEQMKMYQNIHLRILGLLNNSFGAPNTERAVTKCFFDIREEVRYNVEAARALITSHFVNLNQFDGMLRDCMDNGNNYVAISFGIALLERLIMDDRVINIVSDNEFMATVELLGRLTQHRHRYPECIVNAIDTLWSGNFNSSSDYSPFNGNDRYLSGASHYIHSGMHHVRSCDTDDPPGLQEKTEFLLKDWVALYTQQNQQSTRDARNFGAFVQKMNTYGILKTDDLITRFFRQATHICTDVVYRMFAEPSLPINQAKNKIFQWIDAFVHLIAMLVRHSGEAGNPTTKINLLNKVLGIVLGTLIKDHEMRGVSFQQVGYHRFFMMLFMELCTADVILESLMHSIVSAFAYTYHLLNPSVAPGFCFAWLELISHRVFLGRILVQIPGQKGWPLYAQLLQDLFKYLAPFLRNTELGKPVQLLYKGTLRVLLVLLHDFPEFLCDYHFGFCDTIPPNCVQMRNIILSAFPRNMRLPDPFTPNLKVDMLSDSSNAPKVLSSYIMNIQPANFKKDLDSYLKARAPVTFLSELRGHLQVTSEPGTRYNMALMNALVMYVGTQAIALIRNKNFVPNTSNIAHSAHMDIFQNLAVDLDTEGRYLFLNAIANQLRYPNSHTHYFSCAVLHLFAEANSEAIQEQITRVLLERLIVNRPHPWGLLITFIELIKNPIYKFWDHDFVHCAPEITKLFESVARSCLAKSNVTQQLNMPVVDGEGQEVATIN

No constants are given. Whether binding was seen depends on the method and setting. Binding seen in cells or lysates may run through a third protein. Some results given as binding are weak or reduced against the parent protein; the word gives no strength. Sequences can lack the tags named with a protein.

For “NOT1 (subunit of the CCR4-NOT deadenylation complex) (from UniProt A8DY81 1-2505)”, the binding result is given as “binds”.

(Values after article doi:10.1101/134304.)
